± gives the standard deviation. Only a part is listed here, and it is no random draw. Many entries were measured with a wide error.
Tests used:
[1] = test system: MILI (PIWIL2) piRISC loaded with L1MC piRNA (26 nt); test: pre-steady-state target cleavage rate (min^-1); MIWI and MILI are mouse PIWI proteins and EfPiwi is from a freshwater sponge; tags in brackets are library labels; higher = faster piRNA-guided slicing of the target; conditions: guide: L1MC piRNA 5'p-UAACUAAAUACUAUGCAAGCUGUAGG
Method in brief: (§1)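 At 33 °C in HEPES–potassium acetate buffer, a transcribed, DNA-blocked target RNA library […] was exposed for 0–8 or 0–960 min to 1 nM active affinity-purified piRISC carrying a single synthetic guide, with or without 500 nM GTSF1 partner protein. Uncleaved targets were sequenced and normalised to depth and to weakly complementary targets. With three trials pooled and k3 capped at 0.0001 min^-1, a burst-and-steady-state fit produced the pre-steady-state cleavage rate.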

[2] = test system: MIWI (PIWIL1) piRISC loaded with L1MC piRNA (30 nt); test: as above; conditions: guide: L1MC piRNA 5'p-UAACUAAAUACUAUGCAAGCUGUAGGUCCU
Method in brief: as §1

[3] = auxiliary factor: 500 nM mouse GTSF1
[4] = auxiliary factor: none (no GTSF1)
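Further: 1 nM active piRISC with 0.1 nM target library at 33 °C single turnover.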

| Sequence | pre-steady-state target cleavage rate [1, 3] | pre-steady-state target cleavage rate [1, 4] | pre-steady-state target cleavage rate [2, 4] | pre-steady-state target cleavage rate [2, 3] |
| --- | --- | --- | --- | --- |
| UCCUCCUACAGCUUGCAUAGUAUAAUGAAA | 0.0878 ± 0.019 | 0.000907 ± 0.0054 | 0.00134 ± 0.0044 |  |
| UCCUGCUACAGCUUGCAUAGUAUUUUGAAA | 0.112 ± 0.029 | 0.000867 ± 0.0079 | 0.00191 ± 0.0033 |  |
| UCCUCCUACAGCUUGCAUUAGUAUUUAGUUA | 0.0229 ± 0.0088 | 0.00103 ± 0.0052 | 0.000714 ± 0.0086 |  |
| UCCUCCUACAGCUUGCUAUGUAUUUAGUAA | 0.021 ± 0.0069 | 0.00151 ± 0.0034 | 0.00151 ± 0.0032 |  |
| UCCUGGAUGUCGAACAAUAGUAUUUAGUUA | 0.00019 ± 0.013 | < 0.0001 | 0.000158 ± 0.012 |  |
| UCCUCCUACAGCUUGCUAUGUAUUUAGAAA | 0.00902 ± 0.0042 | 0.000805 ± 0.0069 | 0.000664 ± 0.0076 |  |
| UCCUGGAUGUCGAAGCAUAGUGAUUUAGUUA | 0.00304 ± 0.0039 | 0.00124 ± 0.005 | 0.000741 ± 0.0086 |  |
| UCCUGGAUGUCCUUGCAUAGUAUUAUGUUA | 0.00972 ± 0.0046 | 0.000657 ± 0.012 | 0.000718 ± 0.0097 |  |
| UCCUGGAUGUCGAACCAUGGUAUUUAGUUA | 0.00112 ± 0.0065 | 0.000668 ± 0.0074 |  | 0.000264 ± 0.0093 |
| UCCUGGAACAGCUUGCAUAGUAUAAAGAAA | 0.0192 ± 0.0088 | 0.000649 ± 0.0077 | 0.00147 ± 0.0053 |  |
| UCCUCCUACAGCUUGCAUAGAUAUUAGUAA | 0.015 ± 0.007 | 0.000681 ± 0.0085 | 0.000724 ± 0.0093 |  |
| UCCUGGAUGUCGAACGUUAUUAUUUAGUUA | 0.000121 ± 0.047 | 0.000256 ± 0.014 | 0.000257 ± 0.017 |  |
| UCCUCCUACAGCUUGCAUAGUAUAAUGUAA | 0.046 ± 0.014 | 0.000639 ± 0.0098 | 0.00194 ± 0.0029 |  |
| UCCUGGAUGUGCUUGCAUAGUUUAUAGUUA | 0.00502 ± 0.0041 | 0.00269 ± 0.0032 | 0.00289 ± 0.0033 |  |
| UCCUGGAUGUCGUUGCAUAGUAUUUAGUGUA | 0.17 ± 0.027 | 0.00477 ± 0.0035 | 0.00218 ± 0.0049 |  |
| UCCUGGAACACCAUGCAUAGUAUUUAGUUA | 0.163 ± 0.018 | 0.0028 ± 0.0033 | 0.00266 ± 0.0033 |  |
| UCCUGGAUGUCGAAGCAUAGAUAUUUAGUUA | 0.00103 ± 0.0062 | 0.000442 ± 0.011 | 0.000653 ± 0.011 |  |
| UCCUGCUACAGCUUCCAUUGUAUUUAGUUA | 0.157 ± 0.029 | 0.00322 ± 0.0022 | 0.00261 ± 0.0027 |  |
| UCCUGGAUGUCGAACGUUAGUAUUUAUUUA | 0.000168 ± 0.038 | 0.000124 ± 0.048 |  | 0.000173 ± 0.036 |
| UCCUCCUACAGCUUGCAAUAGUAUUUAGUUA | 0.0415 ± 0.01 | 0.00198 ± 0.0034 | 0.00117 ± 0.0059 |  |
| UCCUGGAUCACGAUGCAUAGUAUUUAGUAA | 0.173 ± 0.016 | 0.00263 ± 0.0032 | 0.00151 ± 0.0036 |  |

| Sequence | pre-steady-state target cleavage rate [1, 3] | pre-steady-state target cleavage rate [1, 4] | pre-steady-state target cleavage rate [2, 4] | pre-steady-state target cleavage rate [2, 3] |
| --- | --- | --- | --- | --- |
| UCCUGGAUGUCGAAGCAUUAGUAUUUAGUUA | 0.0011 ± 0.0075 | 0.000238 ± 0.01 | 0.000593 ± 0.0097 |  |
| UCCUGGAUGUCGUUGCAUAGUAUCUAGUUA | 0.11 ± 0.019 | 0.00293 ± 0.0035 | 0.0022 ± 0.0048 |  |
| UCCUGGAUGUCCUUGCAUAGGAUUUAGUUA | 0.00327 ± 0.004 | 0.0015 ± 0.0042 | 0.00136 ± 0.0048 |  |
| UCCUGGAUGUCGAACGUUAGUUUUUAGUAA | 0.000175 ± 0.03 | 0.000288 ± 0.013 |  | 0.000186 ± 0.023 |
| UCCUGGAUGUCGAACGAUAAUAUUUAGUUA | 0.000102 ± 0.051 | 0.00024 ± 0.02 | 0.000554 ± 0.01 |  |
| UCCUGGAUGUCCUUGCAUUAGUAUUUAGUUA | 0.00301 ± 0.0054 | 0.00137 ± 0.005 | 0.00104 ± 0.0071 |  |
| UCCUGGAUGUCGAACCAUAGUAUUUUGUAA | 0.000223 ± 0.042 | < 0.0001 |  | 0.000149 ± 0.03 |
| UCCUGGAUGUCGAACGUAAGUAUUUACAAA | 0.000216 ± 0.024 | 0.000131 ± 0.033 | 0.000225 ± 0.016 |  |
| UCCUGGAUGUCCUUGCAUUGUAUAUAGUUA | 0.0803 ± 0.022 | 0.00438 ± 0.0024 | 0.00109 ± 0.0059 |  |
| UCCUGGAUGUGGAAGCAUAGUAUUUAGUUA | 0.026 ± 0.0048 | 0.00344 ± 0.0029 | 0.00052 ± 0.0067 |  |
| UCCUCCUACAGGAAGCAUAGUAUUUUCAAA | 0.0352 ± 0.012 | 0.000246 ± 0.0096 | 0.000242 ± 0.013 |  |
| UCCUGGAUGUCGUAGGAUAGUAUUUAGUUA | 0.00186 ± 0.0041 | 0.000219 ± 0.024 |  | 0.000121 ± 0.054 |
| UCCUGGAUGUCGUUGCAUAGGAUUUAGUUA | 0.00141 ± 0.0058 | 0.000965 ± 0.0068 | 0.000897 ± 0.0086 |  |
| UCCUGGAUGUCGAUGCUUUGUAUUUAGUUA | 0.000571 ± 0.013 | 0.000368 ± 0.013 | 0.000645 ± 0.0099 |  |
| UCCUGGUACAGCUAGCAUAGUAUUUUCAAA | 0.0662 ± 0.02 | 0.00119 ± 0.0061 | 0.00104 ± 0.0049 |  |
| UCCUGCUACAGCUAGCAUAGUAUUUAGAUA | 0.151 ± 0.028 | 0.00126 ± 0.0066 | 0.00266 ± 0.0028 |  |
| UCCUGGAACAGGAUGCAUAGUAUUUAGUUA | 0.285 ± 0.016 | 0.0116 ± 0.0027 |  |  |
| UCCUGGAUGUCGAACCAUAGUGAUUUAGUUA | 0.000104 ± 0.025 | 0.000239 ± 0.017 | 0.000456 ± 0.014 |  |
| UCCUCCUACAGCUUGGUAAGUAUUUAGUAA | 0.155 ± 0.025 | 0.00232 ± 0.0027 | 0.000794 ± 0.0055 |  |
| UCCUGGAUGUCGAAGCAUAGUAUUUACAUA | 0.00213 ± 0.0047 | 0.000397 ± 0.013 | 0.000658 ± 0.0081 |  |
| UCCUGGAUGUCGAACGUUACGUAUUUAGUUA | 0.000278 ± 0.02 | 0.000179 ± 0.029 | 0.000238 ± 0.028 |  |

Shown tab-delimited: part of the list above
Sequence	pre-steady-state target cleavage rate [1, 3]	pre-steady-state target cleavage rate [1, 4]	pre-steady-state target cleavage rate [2, 4]	pre-steady-state target cleavage rate [2, 3]
UCCUGGAUGUCGAACGUUAGUUUUUAGUAA	0.000175 ± 0.03	0.000288 ± 0.013		0.000186 ± 0.023
UCCUGGAUGUCGAACGAUAAUAUUUAGUUA	0.000102 ± 0.051	0.00024 ± 0.02	0.000554 ± 0.01	
UCCUGGAUGUCCUUGCAUUAGUAUUUAGUUA	0.00301 ± 0.0054	0.00137 ± 0.005	0.00104 ± 0.0071	
